The supplement of paper PMC11546906
Structures can show the parent of a compound that is named as a salt. Some of the results follow. This data set is noisy: repeats of one test often differ as much as different tests do.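 Screen of FDA-approved drugs, each combined with colistin at one-eighth of its MIC, against a multidrug-resistant mcr-1-positive clinical E. coli isolate; growth read as OD600 after 24 h. Bacteria without drug were the growth control and plain broth the blank. A combination counted as active when OD600 fell below 0.2.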

The compounds below were run on Escherichia coli 42 (mcr-1-positive clinical isolate) (assay: OD600 after 24 h growth with compound plus colistin (absorbance units (OD600)); higher = more bacterial growth (less inhibition)). Settings: first compound 25 µM; colistin concentration 0.5 ug/mL; incubation time 24 h; 37 °C.
With CC(=O)NO [Acetohydroxamic acid] + CCC(C)CCCC(=O)N[C@@H](CCN)C(=O)N[C@H](C(=O)N[C@@H](CCN)C(=O)N[C@H]1CCNC(=O)[C@H]([C@@H](C)O)NC(=O)[C@H](CCN)NC(=O)[C@H](CCN)NC(=O)[C@H](CC(C)C)NC(=O)[C@@H](CC(C)C)NC(=O)[C@H](CCN)NC1=O)[C@@H](C)O [colistin] the OD600 was inactive: 1.15. CC[C@H](C)[C@@H]1NC(=O)[C@H](Cc2ccc(O)cc2)NC(=O)[C@@H](N)CSSC[C@@H](C(=O)N2CCC[C@H]2C(=O)N[C@@H](CC(C)C)C(=O)NCC(N)=O)NC(=O)[C@H](CC(N)=O)NC(=O)[C@H](CCC(N)=O)NC1=O [Oxytocin] + CCC(C)CCCC(=O)N[C@@H](CCN)C(=O)N[C@H](C(=O)N[C@@H](CCN)C(=O)N[C@H]1CCNC(=O)[C@H]([C@@H](C)O)NC(=O)[C@H](CCN)NC(=O)[C@H](CCN)NC(=O)[C@H](CC(C)C)NC(=O)[C@@H](CC(C)C)NC(=O)[C@H](CCN)NC1=O)[C@@H](C)O [colistin] was tested, and the OD600 was inactive: 1.07. CC1(C)S[C@@H]2[C@H](NC(=O)[C@H](N)c3ccccc3)C(=O)N2[C@H]1C(=O)O [Ampicillin] + CCC(C)CCCC(=O)N[C@@H](CCN)C(=O)N[C@H](C(=O)N[C@@H](CCN)C(=O)N[C@H]1CCNC(=O)[C@H]([C@@H](C)O)NC(=O)[C@H](CCN)NC(=O)[C@H](CCN)NC(=O)[C@H](CC(C)C)NC(=O)[C@@H](CC(C)C)NC(=O)[C@H](CCN)NC1=O)[C@@H](C)O [colistin] was tested, and the OD600 was inactive: 1.09. In the case of Nc1nc2ccc(OC(F)(F)F)cc2s1 [Riluzole] + CCC(C)CCCC(=O)N[C@@H](CCN)C(=O)N[C@H](C(=O)N[C@@H](CCN)C(=O)N[C@H]1CCNC(=O)[C@H]([C@@H](C)O)NC(=O)[C@H](CCN)NC(=O)[C@H](CCN)NC(=O)[C@H](CC(C)C)NC(=O)[C@@H](CC(C)C)NC(=O)[C@H](CCN)NC1=O)[C@@H](C)O [colistin], the OD600 was inactive: 1.03. CCOc1cc(CC(=O)N[C@@H](CC(C)C)c2ccccc2N2CCCCC2)ccc1C(=O)O [Repaglinide] + CCC(C)CCCC(=O)N[C@@H](CCN)C(=O)N[C@H](C(=O)N[C@@H](CCN)C(=O)N[C@H]1CCNC(=O)[C@H]([C@@H](C)O)NC(=O)[C@H](CCN)NC(=O)[C@H](CCN)NC(=O)[C@H](CC(C)C)NC(=O)[C@@H](CC(C)C)NC(=O)[C@H](CCN)NC1=O)[C@@H](C)O [colistin] was tested, and the OD600 was inactive: 1.07. With COC(=O)Nc1nc2cc(C(=O)c3ccccc3)ccc2[nH]1 [Mebendazole] + CCC(C)CCCC(=O)N[C@@H](CCN)C(=O)N[C@H](C(=O)N[C@@H](CCN)C(=O)N[C@H]1CCNC(=O)[C@H]([C@@H](C)O)NC(=O)[C@H](CCN)NC(=O)[C@H](CCN)NC(=O)[C@H](CC(C)C)NC(=O)[C@@H](CC(C)C)NC(=O)[C@H](CCN)NC1=O)[C@@H](C)O [colistin] the OD600 was inactive: 1.15. CCC(=O)OCC(=O)[C@@]1(OC(=O)CC)[C@@H](C)C[C@H]2[C@@H]3CCC4=CC(=O)C=C[C@]4(C)[C@@]3(Cl)[C@@H](O)C[C@@]21C [Beclometasone dipropionate] + CCC(C)CCCC(=O)N[C@@H](CCN)C(=O)N[C@H](C(=O)N[C@@H](CCN)C(=O)N[C@H]1CCNC(=O)[C@H]([C@@H](C)O)NC(=O)[C@H](CCN)NC(=O)[C@H](CCN)NC(=O)[C@H](CC(C)C)NC(=O)[C@@H](CC(C)C)NC(=O)[C@H](CCN)NC1=O)[C@@H](C)O [colistin] was tested, and the OD600 was inactive: 1.11. CC1Cc2ccccc2N1NC(=O)c1ccc(Cl)c(S(N)(=O)=O)c1 (stereo not given) [Indapamide] + CCC(C)CCCC(=O)N[C@@H](CCN)C(=O)N[C@H](C(=O)N[C@@H](CCN)C(=O)N[C@H]1CCNC(=O)[C@H]([C@@H](C)O)NC(=O)[C@H](CCN)NC(=O)[C@H](CCN)NC(=O)[C@H](CC(C)C)NC(=O)[C@@H](CC(C)C)NC(=O)[C@H](CCN)NC1=O)[C@@H](C)O [colistin] was tested, and the OD600 was inactive: 1.03. With CC(C)(C#N)c1cc(Cn2cncn2)cc(C(C)(C)C#N)c1 [Anastrozole] + CCC(C)CCCC(=O)N[C@@H](CCN)C(=O)N[C@H](C(=O)N[C@@H](CCN)C(=O)N[C@H]1CCNC(=O)[C@H]([C@@H](C)O)NC(=O)[C@H](CCN)NC(=O)[C@H](CCN)NC(=O)[C@H](CC(C)C)NC(=O)[C@@H](CC(C)C)NC(=O)[C@H](CCN)NC1=O)[C@@H](C)O [colistin] the OD600 was inactive: 1.18. In the case of C[C@@H]1CCO[C@H]2Cn3cc(C(=O)NCc4ccc(F)cc4F)c(=O)c(O)c3C(=O)N12 [Dolutegravir sodium] + CCC(C)CCCC(=O)N[C@@H](CCN)C(=O)N[C@H](C(=O)N[C@@H](CCN)C(=O)N[C@H]1CCNC(=O)[C@H]([C@@H](C)O)NC(=O)[C@H](CCN)NC(=O)[C@H](CCN)NC(=O)[C@H](CC(C)C)NC(=O)[C@@H](CC(C)C)NC(=O)[C@H](CCN)NC1=O)[C@@H](C)O [colistin], the OD600 was inactive: 1.02. In the case of Cn1ccnc1S [Methimazole] + CCC(C)CCCC(=O)N[C@@H](CCN)C(=O)N[C@H](C(=O)N[C@@H](CCN)C(=O)N[C@H]1CCNC(=O)[C@H]([C@@H](C)O)NC(=O)[C@H](CCN)NC(=O)[C@H](CCN)NC(=O)[C@H](CC(C)C)NC(=O)[C@@H](CC(C)C)NC(=O)[C@H](CCN)NC1=O)[C@@H](C)O [colistin], the OD600 was inactive: 1.09. COc1ccc(CNc2nc(N3CCC[C@H]3CO)ncc2C(=O)NCc2ncccn2)cc1Cl [Avanafil] + CCC(C)CCCC(=O)N[C@@H](CCN)C(=O)N[C@H](C(=O)N[C@@H](CCN)C(=O)N[C@H]1CCNC(=O)[C@H]([C@@H](C)O)NC(=O)[C@H](CCN)NC(=O)[C@H](CCN)NC(=O)[C@H](CC(C)C)NC(=O)[C@@H](CC(C)C)NC(=O)[C@H](CCN)NC1=O)[C@@H](C)O [colistin] was tested, and the OD600 was inactive: 0.934. Cc1c(OCC(F)(F)F)ccnc1C[S@@+]([O-])c1nc2ccccc2[nH]1 [(R)-Lansoprazole] + CCC(C)CCCC(=O)N[C@@H](CCN)C(=O)N[C@H](C(=O)N[C@@H](CCN)C(=O)N[C@H]1CCNC(=O)[C@H]([C@@H](C)O)NC(=O)[C@H](CCN)NC(=O)[C@H](CCN)NC(=O)[C@H](CC(C)C)NC(=O)[C@@H](CC(C)C)NC(=O)[C@H](CCN)NC1=O)[C@@H](C)O [colistin] was tested, and the OD600 was inactive: 1.08. CN(C)CCCC1(c2ccc(F)cc2)OCc2cc(C#N)ccc21 (stereo not given) [Citalopram hydrobromide] + CCC(C)CCCC(=O)N[C@@H](CCN)C(=O)N[C@H](C(=O)N[C@@H](CCN)C(=O)N[C@H]1CCNC(=O)[C@H]([C@@H](C)O)NC(=O)[C@H](CCN)NC(=O)[C@H](CCN)NC(=O)[C@H](CC(C)C)NC(=O)[C@@H](CC(C)C)NC(=O)[C@H](CCN)NC1=O)[C@@H](C)O [colistin] was tested, and the OD600 was inactive: 1.11. With CCOc1ccccc1OCCN[C@H](C)Cc1ccc(OC)c(S(N)(=O)=O)c1 [Tamsulosin hydrochloride] + CCC(C)CCCC(=O)N[C@@H](CCN)C(=O)N[C@H](C(=O)N[C@@H](CCN)C(=O)N[C@H]1CCNC(=O)[C@H]([C@@H](C)O)NC(=O)[C@H](CCN)NC(=O)[C@H](CCN)NC(=O)[C@H](CC(C)C)NC(=O)[C@@H](CC(C)C)NC(=O)[C@H](CCN)NC1=O)[C@@H](C)O [colistin] the OD600 was inactive: 1.09. For NC(N)=O + CCC(C)CCCC(=O)N[C@@H](CCN)C(=O)N[C@H](C(=O)N[C@@H](CCN)C(=O)N[C@H]1CCNC(=O)[C@H]([C@@H](C)O)NC(=O)[C@H](CCN)NC(=O)[C@H](CCN)NC(=O)[C@H](CC(C)C)NC(=O)[C@@H](CC(C)C)NC(=O)[C@H](CCN)NC1=O)[C@@H](C)O [colistin], the OD600 was inactive: 0.961. In the case of CN(C)CCn1nnnc1SCC1=C(C(=O)O)N2C(=O)[C@@H](NC(=O)Cc3csc(N)n3)[C@H]2SC1 [Cefotiam hydrochloride] + CCC(C)CCCC(=O)N[C@@H](CCN)C(=O)N[C@H](C(=O)N[C@@H](CCN)C(=O)N[C@H]1CCNC(=O)[C@H]([C@@H](C)O)NC(=O)[C@H](CCN)NC(=O)[C@H](CCN)NC(=O)[C@H](CC(C)C)NC(=O)[C@@H](CC(C)C)NC(=O)[C@H](CCN)NC1=O)[C@@H](C)O [colistin], the OD600 was inactive: 1.08. In the case of COc1cccc2c1C(=O)c1c(O)c3c(c(O)c1C2=O)C[C@@](O)(C(=O)CO)C[C@@H]3O[C@H]1C[C@H](N)[C@@H](O)[C@H](C)O1 [Epirubicin hydrochloride] + CCC(C)CCCC(=O)N[C@@H](CCN)C(=O)N[C@H](C(=O)N[C@@H](CCN)C(=O)N[C@H]1CCNC(=O)[C@H]([C@@H](C)O)NC(=O)[C@H](CCN)NC(=O)[C@H](CCN)NC(=O)[C@H](CC(C)C)NC(=O)[C@@H](CC(C)C)NC(=O)[C@H](CCN)NC1=O)[C@@H](C)O [colistin], the OD600 was inactive: 1. In the case of O=C(O)c1cc(-c2ccc(F)cc2F)ccc1O [Diflunisal] + CCC(C)CCCC(=O)N[C@@H](CCN)C(=O)N[C@H](C(=O)N[C@@H](CCN)C(=O)N[C@H]1CCNC(=O)[C@H]([C@@H](C)O)NC(=O)[C@H](CCN)NC(=O)[C@H](CCN)NC(=O)[C@H](CC(C)C)NC(=O)[C@@H](CC(C)C)NC(=O)[C@H](CCN)NC1=O)[C@@H](C)O [colistin], the OD600 was inactive: 0.931. Nc1nc2c(ncn2COC(CO)CO)c(=O)[nH]1 [Ganciclovir] + CCC(C)CCCC(=O)N[C@@H](CCN)C(=O)N[C@H](C(=O)N[C@@H](CCN)C(=O)N[C@H]1CCNC(=O)[C@H]([C@@H](C)O)NC(=O)[C@H](CCN)NC(=O)[C@H](CCN)NC(=O)[C@H](CC(C)C)NC(=O)[C@@H](CC(C)C)NC(=O)[C@H](CCN)NC1=O)[C@@H](C)O [colistin] was tested, and the OD600 was inactive: 0.791.
